Source: the supplement of paper PMC7024190
The list shows a part of the results. Single values are uncertain here, since repeats match poorly.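 The cells were human embryonic kidney cells carrying a Renilla luciferase gene, driven by the HSV-TK promoter, on a plasmid put in briefly by transfection. This is the first-round screen of about ten thousand compounds, looking for ones that raise reporter output.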

What follows are compounds tested on HEK 293FT (assay: log relative Renilla luciferase luminescence (reporter expression vs reference, reference not stated) (log (base not stated)); higher = higher recombinant reporter expression). Conditions: 10 µM; time after transfection 48 h.
Method: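 HEK 293FT cells transiently transfected with pRL-TK (Renilla luciferase) were treated with compounds at 10 uM and luminescence was read about 42 h later. Values are log relative Renilla luminescence (log base and reference not stated). Single-pass screen; 2080 natural products library.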
Compound `CC(=O)Oc1cc(OC(C)=O)c2c(c1)O[C@H](c1ccc(OC(C)=O)c(OC(C)=O)c1)[C@@H](OC(C)=O)C2` [Catechin pentaacetate] has a log of 0.0912.
`COC1=CC(C)C2CC3OC(O)CC4C(C)C5OCOC5C(C2(C)C1=O)C34C` (centres undefined) [Picrasinol B] showed a log of 0.0997.
Work on `C[C@@H]1C[C@H]2O[C@@]3(O[C@@H]2C(C)(C)O)[C@H](O)[C@@]2(C)[C@@H]4CC[C@H]5C(C)(C)[C@@H](O[C@@H]6OC[C@@H](O)[C@H](O)[C@H]6O)CC[C@@]56C[C@@]46CC[C@]2(C)[C@@H]13` [Cimigenoside] yielded a log of 0.0514.
In the case of `C=C(C)[C@H](/C=C/[C@@H](C)[C@H]1CC[C@H]2[C@@H]3CC=C4C[C@@H](O[C@@H]5O[C@H](CO)[C@@H](O)[C@H](O)[C@H]5O)CC[C@]4(C)[C@H]3CC[C@]12C)CC` [22-Dehydroclerosterol glucoside], the log is reported as -0.0248.
With `C=C1C(=O)O[C@H]2C=C(C)[C@@H]3CC[C@](C)(O)[C@@H]3C[C@H]12` [4-Epi-isoinuviscolide] the log was -0.123.
`CC(=O)Oc1cc(OC(C)=O)c2c(c1)OC(c1ccccc1)CC2=O` (centres undefined) [Pinocembrin diacetate] showed a log of -0.262.
Work on `C=C1[C@@H]2CC[C@H]3[C@@]45CO[C@](O)([C@@H](OC(C)=O)[C@@H]4C(C)(C)C=CC5=O)[C@]3(C2)[C@@H]1OC(C)=O` [Odonicin] yielded a log of -0.172.
`C=C1C(=O)[C@]23C[C@H]1CC[C@H]2[C@@]12CO[C@]3(O)[C@@H](O)[C@@H]1C(C)(C)C=CC2=O` [Eriocalyxin B] showed a log of -1.68.
`COc1cc(OC/C=C(\C)CCC=C(C)C)cc2oc(=O)ccc12` [7-Geranyloxy-5-methoxycoumarin] showed a log of -0.324.
Compound `CC(C)=CCc1c(O[C@@H]2O[C@H](CO)[C@@H](O)[C@H](O)[C@H]2O)cc(O)c2c1O[C@H](c1ccc(O)cc1)CC2=O` [Flavaprin] has a log of 0.16.
Compound `COc1ccc(-c2cc(=O)c3c(O)cc(O)cc3o2)cc1` [Acacetin] has a log of -0.144.
For `O=C(O)CCCCCCCCC(=O)O` [Decanedioic acid], the log was 0.245.
For `CC1(O)CCC(C(C)(C)O)C(O)C1` (centres undefined) [p-Menthan-1,3,8-triol], the log was -0.142.
`C[C@@H]1O[C@@H](Oc2c(-c3ccc(O)cc3)oc3cc(O)cc(O)c3c2=O)[C@H](O)[C@H](O)[C@H]1O` [Afzelin] gave a log of 0.0322.
Work on `O=c1ccc2c(O[C@@H]3O[C@H](CO)[C@@H](O)[C@H](O)[C@H]3O)c3ccoc3c(O)c2o1` [8-Hydroxy-5-O-beta-D-glucopyranosylpsoralen] yielded a log of -0.104.
`C[C@@H]1CN2C[C@H]3CCC4=C5[C@H](CC4)[C@H](C(=O)O)C[C@@]54C(=O)[C@@H]1C[C@@H]2[C@@]34C` [Daphnilongeranin C] gave a log of 0.0673.
Work on `C[C@H]1[C@H](C)CC[C@]2(C(=O)O)CC[C@]3(C)C(=CC[C@@H]4[C@@]5(C)CC[C@H](O)C(C)(C)[C@@H]5CC[C@]43C)[C@H]12` [Ursolic acid] yielded a log of -0.189.
Work on `COc1cc(C[C@@H](CO)c2cc(/C=C/CO)cc(OC)c2O[C@@H]2O[C@H](CO)[C@@H](O)[C@H](O)[C@H]2O)ccc1O` [Icariside E5] yielded a log of 0.0279.
Compound `C=C(C)[C@@H]1CC[C@@H]2C(=CC[C@]3(C)C(=O)CC[C@@]23C)[C@@]1(C)CCC(=O)O` [Micranoic acid A] has a log of -0.0849.
Compound `C=C1C(=O)O[C@H]2C[C@H](C)C(/C=C/C(C)=O)=CC[C@H]12` [Xanthatin] has a log of -0.276.
`OCc1ccccc1O` [Salicyl alcohol] was tested, and the log was -0.56.
Work on `COc1cc2oc(=O)ccc2cc1CC=C(C)C` [Suberosin] yielded a log of -0.117.
With `O=Cc1ccc(O)cc1` [4-Hydroxybenzaldehyde] the log was -0.672.
Work on `C=CC(C)(C)c1c(O)cc(O)c2c(=O)c3c(CC=C(C)C)c(O)c(O)cc3oc12` [Cudratricusxanthone A] yielded a log of -1.39.
`C=C[C@]1(C)CC[C@]2(C)[C@@H](C1)C(=O)C[C@H]1[C@]3(C)CCC[C@@]12OC3=O` [Rosenonolactone] gave a log of -0.184.
`COc1cc2oc(=O)ccc2c(OC)c1O` [Fraxinol] was tested, and the log was -0.102.
In the case of `CC[C@H](CC[C@@H](C)[C@H]1CC[C@H]2[C@@H]3C[C@@H](O)[C@@]4(O)C[C@@H](O)CC[C@]4(C)[C@H]3CC[C@]12C)C(C)C` [Stigmastane-3,5,6-triol], the log is reported as -0.424.
Compound `O=c1cc(CO)oc2cc3occc3c(O)c12` [Norkhellol] has a log of 0.0294.
`COc1cc2ccc(=O)oc2c2c1OC(C)(C)C=C2` [Braylin] was tested, and the log was -0.565.
For `CC(C)=CCc1cc(-c2coc3cc(O)c(CC=C(C)C)c(O)c3c2=O)ccc1O` [Lupalbigenin], the log was -0.0367.
Compound `O=c1cc(-c2ccc(O)c(O)c2)oc2cc(O)cc(O)c12` [Luteolin] has a log of -0.306.
Compound `CC(=O)Oc1ccc(C2CC(=O)c3c(OC(C)=O)cc(OC(C)=O)cc3O2)cc1` (centres undefined) [Naringenin triacetate] has a log of 0.0164.
`COc1cc(C(O)[C@@H]2CO[C@H](c3cc(OC)c(O)c(OC)c3)[C@H]([C@H]3CO[C@@H](C(O)c4ccc(O)c(OC)c4)CO[C@H]3c3cc(OC)c(O)c(OC)c3)CO2)ccc1O` (some centres undefined) [Phyllostadimer A] was tested, and the log was 0.0487.
`C[C@@H]1CO[C@@]2(C[C@@H]1OC(=O)c1ccc(O)cc1)O[C@@H]1C[C@@H](C(=O)O)C[C@H](O)[C@]1(O)C2=O` [Glochicoccin D] was tested, and the log was 0.134.
`CC1=CCC[C@H]2[C@@]1(C)[C@@H](OC(=O)c1cccnc1)[C@H](OC(=O)c1ccccc1)[C@](C)(O)[C@]2(C)/C=C/C1=CC(=O)OC1` [Scutebarbatine B] was tested, and the log was 0.0647.
`CC(=O)OC[C@@]12[C@H]([C@H](OC(=O)c3ccccc3)[C@]3(C(C)(C)O)C[C@H](O)C(C)=C3[C@@H](O)[C@@H]1O)[C@]1(OC(C)=O)CO[C@@H]1C[C@@H]2O` [13-O-Deacetyltaxumairol Z] was tested, and the log was 0.0981.
`COC(=O)/C=C(\C)CC[C@@]1(C)[C@H](C)CC[C@@]2(C)C(C(=O)O)=CCC[C@H]12` [Monomethyl kolavate] gave a log of -0.006.
`COC(=O)[C@]12CC[C@]34CCCN5C[C@H](C(=O)C3)[C@@]1(c1ccccc1N2)[C@@H]54` [Methyl demethoxycarbonylchanofruticosinate] was tested, and the log was 0.162.
Work on `C[C@@H](CO)CCc1c[nH]c2ccccc12` [Paniculidine C] yielded a log of -0.327.
